Experimental data reported in PMC11140966.
These are yes or no findings as the source states them, for the method shown. Binding seen in cells or lysates may run through a third protein. Some entries that bind do so weakly or less than the wild type.

By UniProt entry, the sequences of proteins in these tests, tags left out.
UniProt P56959: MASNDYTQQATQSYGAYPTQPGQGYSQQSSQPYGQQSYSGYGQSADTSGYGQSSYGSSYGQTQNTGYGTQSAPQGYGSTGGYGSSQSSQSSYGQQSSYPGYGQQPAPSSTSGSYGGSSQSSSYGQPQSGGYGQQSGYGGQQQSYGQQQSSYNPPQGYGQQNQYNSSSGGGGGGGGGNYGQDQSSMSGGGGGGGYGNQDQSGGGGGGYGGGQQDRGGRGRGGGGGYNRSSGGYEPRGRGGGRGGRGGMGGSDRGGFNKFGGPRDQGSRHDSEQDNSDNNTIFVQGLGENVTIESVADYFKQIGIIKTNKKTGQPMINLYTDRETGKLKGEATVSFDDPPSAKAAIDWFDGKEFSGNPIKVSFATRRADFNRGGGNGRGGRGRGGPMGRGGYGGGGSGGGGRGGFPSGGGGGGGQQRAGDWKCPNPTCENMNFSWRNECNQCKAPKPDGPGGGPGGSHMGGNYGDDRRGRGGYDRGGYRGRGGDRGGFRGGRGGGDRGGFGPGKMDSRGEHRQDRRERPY
UniProt P48754: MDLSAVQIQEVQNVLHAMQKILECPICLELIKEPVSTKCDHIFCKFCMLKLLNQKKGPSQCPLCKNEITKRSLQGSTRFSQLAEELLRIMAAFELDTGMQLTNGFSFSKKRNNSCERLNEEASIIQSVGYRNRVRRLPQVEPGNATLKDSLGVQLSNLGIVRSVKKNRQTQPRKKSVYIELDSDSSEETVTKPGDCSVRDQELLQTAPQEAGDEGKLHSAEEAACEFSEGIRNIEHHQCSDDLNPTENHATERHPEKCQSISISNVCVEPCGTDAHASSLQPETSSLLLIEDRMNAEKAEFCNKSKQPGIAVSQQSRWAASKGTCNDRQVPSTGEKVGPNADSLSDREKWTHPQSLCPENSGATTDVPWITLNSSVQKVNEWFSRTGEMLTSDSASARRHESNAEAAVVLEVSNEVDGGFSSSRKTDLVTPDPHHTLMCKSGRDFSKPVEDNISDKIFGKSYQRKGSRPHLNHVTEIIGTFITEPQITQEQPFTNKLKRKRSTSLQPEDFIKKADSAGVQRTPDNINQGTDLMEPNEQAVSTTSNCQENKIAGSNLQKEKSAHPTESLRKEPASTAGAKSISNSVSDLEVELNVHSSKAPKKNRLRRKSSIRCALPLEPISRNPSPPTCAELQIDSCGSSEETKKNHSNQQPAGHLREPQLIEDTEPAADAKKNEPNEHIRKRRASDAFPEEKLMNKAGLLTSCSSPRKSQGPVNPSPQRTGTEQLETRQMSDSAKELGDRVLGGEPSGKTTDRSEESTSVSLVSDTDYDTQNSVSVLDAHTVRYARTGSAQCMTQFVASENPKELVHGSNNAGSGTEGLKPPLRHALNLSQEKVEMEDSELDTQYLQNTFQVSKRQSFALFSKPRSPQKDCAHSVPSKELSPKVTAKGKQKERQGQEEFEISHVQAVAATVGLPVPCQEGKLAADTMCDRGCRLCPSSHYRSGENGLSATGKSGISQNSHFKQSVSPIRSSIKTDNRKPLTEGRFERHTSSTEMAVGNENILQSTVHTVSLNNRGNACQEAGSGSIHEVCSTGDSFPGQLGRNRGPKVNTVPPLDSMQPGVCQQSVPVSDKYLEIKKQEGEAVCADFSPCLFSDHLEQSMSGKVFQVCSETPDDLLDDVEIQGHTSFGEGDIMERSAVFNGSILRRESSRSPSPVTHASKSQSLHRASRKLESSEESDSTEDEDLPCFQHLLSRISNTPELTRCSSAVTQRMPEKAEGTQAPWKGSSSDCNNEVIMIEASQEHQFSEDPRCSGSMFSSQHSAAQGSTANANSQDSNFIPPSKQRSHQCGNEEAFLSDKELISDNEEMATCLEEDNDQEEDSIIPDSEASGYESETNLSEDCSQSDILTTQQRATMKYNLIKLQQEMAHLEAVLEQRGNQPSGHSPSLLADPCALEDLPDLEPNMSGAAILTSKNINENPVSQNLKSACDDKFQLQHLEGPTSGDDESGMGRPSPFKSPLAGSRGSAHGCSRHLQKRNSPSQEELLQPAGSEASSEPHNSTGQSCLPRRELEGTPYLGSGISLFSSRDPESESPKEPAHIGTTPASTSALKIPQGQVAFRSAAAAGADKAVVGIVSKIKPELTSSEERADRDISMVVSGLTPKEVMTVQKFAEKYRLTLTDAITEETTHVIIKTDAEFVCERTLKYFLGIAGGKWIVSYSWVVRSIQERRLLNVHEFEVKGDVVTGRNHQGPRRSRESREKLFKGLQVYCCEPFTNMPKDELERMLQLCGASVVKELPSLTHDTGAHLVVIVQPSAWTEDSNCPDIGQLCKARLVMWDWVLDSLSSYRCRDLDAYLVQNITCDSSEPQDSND
UniProt P23804: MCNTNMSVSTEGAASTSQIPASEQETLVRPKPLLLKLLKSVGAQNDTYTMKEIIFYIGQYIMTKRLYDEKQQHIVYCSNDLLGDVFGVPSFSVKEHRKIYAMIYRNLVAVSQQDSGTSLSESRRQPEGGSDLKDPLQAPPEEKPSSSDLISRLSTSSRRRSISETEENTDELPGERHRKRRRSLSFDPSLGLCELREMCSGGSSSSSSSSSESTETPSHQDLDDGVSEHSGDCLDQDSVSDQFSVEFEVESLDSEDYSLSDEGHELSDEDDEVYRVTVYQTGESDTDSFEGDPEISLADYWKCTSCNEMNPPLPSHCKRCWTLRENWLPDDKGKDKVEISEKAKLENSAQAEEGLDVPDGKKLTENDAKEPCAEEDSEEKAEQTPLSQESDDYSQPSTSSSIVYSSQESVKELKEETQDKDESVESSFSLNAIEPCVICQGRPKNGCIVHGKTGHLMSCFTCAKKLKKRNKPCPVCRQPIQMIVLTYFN

Target: FUS (fused in sarcoma/translocated in liposarcoma), endogenous in embryonic mouse ovary (mouse (endogenous in embryonic mouse ovary)) (UniProt P56959)
Test: co-IP; endogenous proteins in embryonic mouse ovary lysates; antibody on Protein A/G magnetic beads, 1 h at room temperature; immunoblotting; IgG as negative control; also lysates of cultured ovaries transfected with control or AD-Hfm1i (FUS with FBXW11 increased, FUS with MDM2 not changed significantly)

| binding | Substance |
| --- | --- |
| binds | Breast cancer susceptibility gene 1 (BRCA1), endogenous in embryonic mouse ovary (from UniProt P48754 1-1812) |
| binds | MDM2, endogenous in embryonic mouse ovary (from UniProt P23804 1-489) |
